Reference: PubChem BioAssay AID1347076 (National Center for Advancing Translational Sciences (NCATS), 2019)
Several values for one entry are separate records, joined by “and”; a condition that tells them apart may be missing. Identical values can stand only once. Among all 400,000 compounds or so, about 13,000 (3.2%) were called active. This list was built around the results that the source calls inconclusive (neither active nor inactive); the mix of calls is not that of the screen. The call rests on the fitted dose curve; in most records, active means well fitted cell-killing curve with a large enough effect; inconclusive means small, poorly fitted or top-dose-only effect, or effect the other way; inactive means flat fitted curve, though single readings scatter. Potencies beside an inconclusive call are fits to weak or partial responses and may not hold up.

test: qHTS assay for MDR1-selective chemotherapeutics: Primary screen using the drug-selected MDR subline cells KB-V1; conditions: KB-V1 MDR cells viability, CellTiter-Glo, 72 h; activity change, negative = cytotoxicity: at 46.1 µM (top of the series); further: nearly all actives have a fitted effect of over 60% in size
Method in brief: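 KB-V1, DMEM (no phenol red) + 10% FBS; cpd pin-transferred, titration series; 72 h, 37 degrees C; CellTiter-Glo, luminescence. Data normalized, curve-fit.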
On the % scale 0 is the no-effect control and ±100 the full control effect; potency means the concentration at half of the fitted maximal effect.

Structure (SMILES) | Potency | activity change, negative = cytotoxicity
COC(=O)c1ccc(C2c3c(-c4ccc(Br)cc4)n[nH]c3C(=O)N2c2ccc(Cl)cc2)cc1 (configuration not stated) | inconclusive: 20.6 µM [cytotoxic, single point] | 
CC(=O)c1cccc(NC(=O)c2ccc([N+](=O)[O-])o2)c1 | active: 16.4 µM | 
COc1ccccc1C(=O)Nc1ccnn1C1CCN(C2CCSCC2)CC1 | inconclusive: 11.6 µM [cytotoxic, partial curve, poor fit] | 
CC(=O)Oc1ccccc1Cn1c(C)c(C(=O)NCc2ccc(F)cc2)sc1=O | inconclusive: 20.6 µM [cytotoxic, single point] | 
Cc1oc(-c2ccccc2F)nc1CS(=O)CC(=O)NC1CC1 (configuration not stated) | inconclusive: 2.91 µM [rising, partial curve, poor fit] | 
O=C(NCCc1cn2ccccc2n1)c1cc(COc2ccc3ncccc3c2)on1 | active: 8.2 µM | 
CCc1ccc(OCC(=O)Nc2cc3oc4ccccc4c3cc2OC)c(Br)c1 | inconclusive: 29.1 µM [cytotoxic, single point] | 
Oc1ccc(O)c(Cc2nc3ccccc3s2)c1 | inconclusive: 29.1 µM [rising, single point] | 
O=C(N/N=C/c1ccc(O)c(O)c1)c1cccc(S(=O)(=O)N2CCCCC2)c1 |  | inactive: 18.8%
COc1ccc(N(CC(=O)Nc2ccccc2C(F)(F)F)C2=NC3CS(=O)(=O)CC3S2)cc1 (configuration not stated) |  | inactive: -9.07%
CCN(C(=O)CSc1n[nH]c(N)n1)c1cccc2ccccc12 |  | inactive: -2.77%
Cc1nn(-c2ccccc2)c2c1CC(=O)Nc1ccccc1-2 | active: 1.64 µM | 
O=C(/C=C/c1ccccc1)OCc1cnc(Cl)s1 |  | inactive: 15%
CCN1CCC(NC(=O)Nc2ccc(F)cc2F)CC1 |  | inactive: -10.1%
COc1ccc(-c2nnc(SCC(=O)N3CCCCC3)o2)cc1 | inconclusive: 11.6 µM [cytotoxic, partial curve, poor fit] | 
CNc1nc(N/N=C/c2cc3c(cc2[N+](=O)[O-])OCO3)nc(Nc2ccccc2)n1 | active: 16.4 µM | 
CCn1c(SCC(=O)c2ccc(C)cc2)nnc1-c1ccoc1C |  | inactive: -15.6%
CCN(CC)c1ccc(NC(=O)CN2C(=O)NC3(CCc4ccccc43)C2=O)cc1 (configuration not stated) | inconclusive: 32.6 µM [rising, single point] | 
CCOc1cc(C=NN2CCCCCC2)ccc1O |  | inactive: 0%
Cc1ccc2nc(-c3ccc(SCC(=O)N4CCc5ccccc54)nc3)[nH]c2c1 | active: 4.11 µM | 
CCOc1ccc(NC(=O)CN(c2cc(C)cc(C)c2)S(=O)(=O)c2c(C)noc2C)cc1 | inconclusive: 0.517 µM [cytotoxic, full curve] | 
COCCN=c1scc(-c2cc(OC)ccc2OC)n1/N=C/c1c[nH]c2ccccc12 | inconclusive: 20.6 µM [cytotoxic, partial curve, poor fit] | 
COc1cccc(NC(=O)c2ccccc2-c2nc(-c3ccc(F)cc3)no2)c1 | active: 18.4 µM | 
CCOc1cc2c(c3c1C(c1ccccc1)N(S(=O)(=O)c1ccc(C)cc1)C3)C(=O)C=CC2=O (configuration not stated) | inconclusive: 29.1 µM [cytotoxic, single point] | 
O=C(Nc1ccncc1)Nc1cc(Cl)ccc1Cl |  | inactive: -5.22%
CCc1nn(CCCN2CCN(c3cccc(Cl)c3)CC2)c(=O)n1CCOc1ccccc1 | active: 6.51 µM and inconclusive: 2.06 µM [cytotoxic, full curve] | 

Structure (SMILES) | Potency | activity change, negative = cytotoxicity
CC(Oc1ccccc1F)C(=O)Nc1ccc2ccccc2c1 (configuration not stated) | inconclusive: 16.4 µM [cytotoxic, partial curve] | 
CCC1CCCCN1C(=O)CSc1nnc(-c2ccc(Cl)cc2)o1 (configuration not stated) | inconclusive: 7.31 µM [cytotoxic, partial curve] | 
Cc1c(Cl)cccc1NC(=O)CSc1nc(=O)n(Cc2ccncc2)c2c1CCC2 |  | inactive: -8.54%
CCCC1=C(C(=O)OCC)C(c2cccs2)n2ncnc2N1 (configuration not stated) | inconclusive: 9.2 µM [cytotoxic, partial curve] | 
O=C(O)c1cc(-c2ccc3ccccc3n2)nc2ccccc12 |  | inactive: -19.4%
O=C(O)CCn1cc(C2CC(c3ccccc3)=NN2c2ccccc2)c(-c2ccccc2)n1 (configuration not stated) |  | inactive: 26.5%
CCNc1nc(NCC)nc(OCCOC(=O)c2ccccc2)n1 | inconclusive: 32.6 µM [cytotoxic, single point] | 
COc1ccc(S(=O)(=O)N2CCN(C)CC2)cc1C(=O)N1CCCCC1 |  | inactive: 0.493%
CN(C(=O)c1ccc(OC2CCN(S(=O)(=O)N(C)C)CC2)cc1)C1CCCCC1 |  | inactive: -0.375%
COCCCNC(=O)Cn1ccc(N)nc1=O |  | inactive: 7.57%
CC(=O)NCCn1c(C)cc2ccccc21 | inconclusive: 29.1 µM [cytotoxic, single point] | 
CCN(CC)S(=O)(=O)c1ccc(NC2c3ccccc3C(=O)N2c2ccc(C)cn2)cc1 (configuration not stated) |  | inactive: 0%
CCCNCc1cc(OC)c(OCC(=O)NCCc2ccccc2)cc1Br | inconclusive: 10.3 µM [cytotoxic, partial curve, poor fit] | 
O=C(CSc1ncn[nH]1)Nc1c(Br)cc([N+](=O)[O-])cc1Br |  | inactive: 1.34%
Cc1cccc(CSC(=N)N)c1 |  | inactive: -19%
COC1=CCC2([N+](=O)[O-])CN(CCO)CC1([N+](=O)[O-])C2 (configuration not stated) |  | inactive: 0%
COc1ccc(S(=O)(=O)Nc2c(F)cccc2F)cc1 |  | inactive: -0.535%
C/C(=N/OCO/N=C(/C)c1ccc(F)cc1)c1ccc(F)cc1 | inconclusive: 29.1 µM [cytotoxic, single point] | 
O=c1cc(CSc2nnc(NC3CCCCC3)s2)nc2sccn12 | inconclusive: 0.0052 µM [cytotoxic, full curve] | 
C/C(=N\NC(=O)c1cc(-c2cccnc2)nc2ccccc12)c1ccccc1O | active: 6.51 µM | 
COc1ccc(-c2ccc(SCC(=O)N3c4ccccc4CC3C)nn2)cc1OC (configuration not stated) | inconclusive: 20.6 µM [cytotoxic, partial curve] | 
CCCCOc1ccc(OCCNS(=O)(=O)N(C)C)cc1 | inconclusive: 29.1 µM [cytotoxic, single point] | 
COC(=O)c1sc(NC(=O)c2ccc(Cn3cc(Cl)cn3)o2)c(C#N)c1C |  | inactive: -5.8%
Cc1cc(C)cc(NS(=O)(=O)c2ccc(-c3cc(C)no3)s2)c1 | inconclusive: 2.91 µM [cytotoxic, full curve, poor fit] | 
CSCCC(NC(=O)c1ccccc1)C(=O)N1CCN(C(c2ccccc2)c2ccccc2)CC1 (configuration not stated) | inconclusive: 7.31 µM [cytotoxic, partial curve, poor fit] | 
COc1ccccc1NC(=O)C1=C(C)Nc2nnnn2C1c1ccccc1OC (configuration not stated) |  | inactive: -20.2%

Structure (SMILES) | Potency | activity change, negative = cytotoxicity
CC(=O)Nc1ccc(CC#N)cc1 | inconclusive: 29.1 µM [rising, single point] | 
Cc1ccc(OCCN2C(=O)C(=O)c3cc(C)ccc32)cc1 | inconclusive: 29.1 µM [cytotoxic, single point] | 
Cc1ccc(CNC(=O)CCCNC(=O)c2ccc(Cl)cc2)n1C | inconclusive: 13 µM [cytotoxic, partial curve] | 
Cc1ccc(NC(=O)CCCCCCCCCCC2COCCO2)c(C)c1 (configuration not stated) | active: 18.4 µM | 
N#Cc1ccc(Oc2cccc3cccnc23)c([N+](=O)[O-])c1 | active: 20.6 µM | 
COc1ccc(CCN2C(=O)CC(C(C)c3ccccc3)C2=O)cc1OC (configuration not stated) | inconclusive: 23.1 µM [cytotoxic, single point] | 
CCCN1CCN(CCNC(=O)Nc2cc(C)ccc2C)CC1 |  | inactive: 0%
CSc1ccccc1-c1nnc(-c2ccc(Cl)cc2)o1 |  | inconclusive: -63.9%
Cn1c(=O)[nH]c(=O)c2c1nc(N1CCCC1)n2CCCSc1nnnn1-c1ccccc1 | active: 6.51 µM | 
CC1(C)CC2(CCO1)OC(=O)CC2C(=O)Nc1ccc(Cl)cc1[N+](=O)[O-] (configuration not stated) |  | inactive: 16.4%
COc1cc(-c2cc(C(=O)Nc3ccc(S(N)(=O)=O)cc3)c3ccccc3n2)cc(OC)c1OC |  | inactive: 0.695%
CCCCn1c(N)c(N(CCC(C)C)C(=O)c2cccc(-n3cnnn3)c2)c(=O)[nH]c1=O |  | inactive: 10%
Cc1cc(NC(=O)CSCC(=O)OCC(=O)c2ccc(Br)cc2)no1 |  | inactive: 8.67%
COC(=O)c1cn(NC(=O)CCC2CCCC2)c(=O)c2ccccc12 |  | inactive: -11.2%
Cc1cc(C(=O)CSc2cccc[n+]2[O-])c(C)n1-c1ccccc1 | inconclusive: 20.6 µM [cytotoxic, single point] | 
CC(=O)NS(=O)(=O)c1ccc(NC(=O)/C=C/c2ccccc2)cc1 | inconclusive: 29.1 µM [rising, single point] | 
O=C(O)CSc1nc2ccccc2c(=O)[nH]1 |  | inactive: 4.49%
Cc1ccccc1Cn1c(=O)n(CC2CCC(C(=O)N3CCC(C)CC3)CC2)c(=O)c2sccc21 (configuration not stated) | inconclusive: 29.1 µM [cytotoxic, single point] | 
Cc1ccc(CCC(=O)Nc2ncc(Cc3cccc(Cl)c3Cl)s2)o1 | active: 0.517 µM | 
Cc1ccc(-n2ncc(C(=O)NCc3ccc4c(c3)OCO4)c2C2CCN(C(=O)OC(C)(C)C)CC2)cc1C |  | inactive: -26%
O=C(Nc1ccc2ccccc2c1)/C(=C/c1cccc(Br)c1)NC(=O)c1ccco1 | inconclusive: 20.6 µM [cytotoxic, single point] | 
CC1CN(C(=S)Nc2ccc(S(N)(=O)=O)cc2)CC(C)O1 (configuration not stated) | inconclusive: 29.1 µM [rising, single point] | 
Cc1sc2ncnc(SCC(=O)Nc3ccc(S(=O)(=O)N4CCOCC4)cc3)c2c1C |  | inactive: -1.76%
CCOC(=O)c1c(C)[nH]c(C)c1S(=O)(=O)N(C)CC(=O)Nc1cccc(Cl)c1C |  | inactive: 7.05%
COc1cccc(COc2ccc3ccc(=O)oc3c2)c1 | inconclusive: 1.84 µM [rising, partial curve, poor fit] | 
